Measured values taken from the DeepSol protein solubility set.

Experiment: soluble on expression in E. coli; label from the status in PepcDB or PDB records
For “GPGSMGVDYYKVLGVSRNATPNEIKKAYHQLALKYHPDKNADNREKAERKFKEVSEAYDVLSDEKKKKIYDLYGEEGLKGGIPEDGGAGMGGAGMRFGGMPGGMPGGVRGATYQFSSTDAFKIFNQFFGTSDPFAGGEAFGGGGPGLHRVFRGFGGPEGFASGFGTPQSSPTRDVPPMEYTFACTLEEIYTGCTKKFNVSRNMPSGPEKKIFEVKVLPGYKKGTKIRFEREGGQVEGYPPNVFADMVFILDERPHPRFERRDADLHTTLHINLKQALLGSTVFVKGIDGQTISLPLNGVSKSGRKLRVSGSGLPDRKTNRNGDLYVTIAVDFPDSLTEDTKRLIEKCTF”, the “soluble on expression in E. coli” value was “soluble”. In the case of “GRFTREGIEALEDIAKNIGEAMLRKQAEEKLVASERFLRMLTNQLPGMVGYWDRDLRCRFANDAYKEWFGRSPEQIIGLTVQELMGEELFRLSEPYIRGALQGEPQNFERELVKPNGETGYTWAQYIPDMVND”, the “soluble on expression in E. coli” value is reported as “not soluble”. In the case of “MAGSREVVAMDCEMVGLGPHRESGLARCSLVNVHGAVLYDKFIRPEGEITDYRTRVSGVTPQHMVGATPFAVARLEILQLLKGKLVVGHDLKHDFQALKEDMSGYTIYDTSTDRLLWREAKLDHCRRVSLRVLSERLLHKSIQNSLLGHSSVEDARATMELYQISQRIRARRGLPRLAVSDLEHHHHHH”, the “soluble on expression in E. coli” value is reported as “soluble”. For “MANLLPVTVLSGFLGAGKSTLLNYVLRNRENLRVAVIVNDMSEINIDGSEVQRDVSLNRAEEKLIEMSNGCICCTLREDLLEEVSRLAQDGRFDYLLIESTGISEPLPVAETFTFRDEAGKSLMDLARLDTMVTVVDGVNFLLDYEAADGLSTRGESLGEDDDRSITDLLIEQIEFADVILLSKIDLISSSEREELMAILKRLNPEAEIVPMVMGQVPLATILNTGRFDFQRASQAPGWLKEMRGEHTPETEEYGIASTAYRARRPFHPERFFNFINRPWTNGKLLRSKGFFWLASKYKDAGSWSQAGGLMRQGFAGRWWRFVNRESWPEDRESVKSILENWSTETGDCRQELVFIGQNIDFERLTAELDNCLLTDAEMEAGVERWRTLADPFGDWYEEEVAA”, the “soluble on expression in E. coli” value was “not soluble”. In the case of “MAQAEVLNLESGAKQVLQETFGYQQFRPGQEEIIDTVLSGRDCLVVMPTGGGKSLCYQIPALLLNGLTVVVSPLISLMKDQVDQLQANGVAAACLNSTQTREQQLEVMTGCRTGQIRLLYIAPERLMLDNFLEHLAHWNPVLLAVDEAHCISQWGHDFRPEYAALGQLRQRFPTLPFMALTATADDTTRQDIVRLLGLNDPLIQISSFDRPNIRYMLMEKFKPLDQLMRYVQEQRGKSGIIYCNSRAKVEDTAARLQSKGISAAAYHAGLENNVRADVQEKFQRDDLQIVVATVAFGMGINKPNVRFVVHFDIPRNIESYYQETGRAGRDGLPAEAMLFYDPADMAWLRRCLEEKPQGQLQDIERHKLNAMGAFAEAQTCRRLVLLNYFGEGRQEPCGNCDICLDPPKQYDGSTDAQIALSTIGRVNQRFGMGYVVEVIRGANNQRIRDYGHDKLKVYGMGRDKSHEHWVSVIRQLIHLGLVTQNIAQHSALQLTEAARPVLRGESSLQLAVPRIVALKPKAM”, the “soluble on expression in E. coli” value is reported as “soluble”. In the case of “MAQASDSTAMEVEEATNQTVKKRFEVKKWSAVALWAWDIQVDNCAICRNHIMDLCIECQANQAAGLKDECTVAWGNCNHAFHFHCISRWLKTRQVCPLDNREWEFQKYGH”, the “soluble on expression in E. coli” value is reported as “not soluble”. With “MEFKYNGKVESVELNKYSKTLTQDPTQPATQAMYYGIGFKDEDFKKAQVGIVSMDWDGNPCNMHLGTLGSKIKSSVNQTDGLIGLQFHTIGVSDGIANGKLGMRYSLVSREVIADSIETNAGAEYYDAIVAIPGCDKNMPGSIIGMARLNRPSIMVYGGTIEHGEYKGEKLNIVSAFESLGQKITGNISDEDYHGVICNAIPGQGACGGMYTANTLAAAIETLGMSLPYSSSNPAVSQEKQEECDEIGLAIKNLLEKDIKPSDIMTKEAFENAITIVMVLGGSTNAVLHIIAMANAIGVEITQDDFQRISDITPVLGDFKPSGKYMMEDLHKIGGLPAVLKYLLKEGKLHGDCLTVTGKTLAENVETALDLDFDSQDIMRPLKNPIKATGHLQILYGNLAQGGSVAKISGKEGEFFKGTARVFDGEQHFIDGIESGRLHAGDVAVIRNIGPVGGPGMPEMLKPTSALIGAGLGKSCALITDGRFSGGTHGFVVGHIVPEAVEGGLIGLVEDDDIIEIDAVNNSISLKVSDEEIAKRRANYQKPTPKATRGVLAKFAKLTRPASEGCVTDLLEHHHHHH” the “soluble on expression in E. coli” value was “soluble”. In the case of “MEKYNPHAIEAKWQRFWEEKGFMKAKDLPGGRGKQYVLVMFPYPSGDLHMGHLKNYTMGDVLARFRRMQGYEVLHPMGWDAFGLPAENAALKFGVHPKDWTYANIRQAKESLRLMGILYDWDREVTTCEPEYYRWNQWIFLKMWEKGLAYRAKGLVNWCPKCQTVLANEQVVEGRCWRHEDTPVEKRELEQWYLRITAYAERLLKDLEGLNWPEKVKAMQRAWIGRSEGAEILFPVEGKEVRIPVFTTRPDTLFGATFLVLAPEHPLTLELAAPEKREEVLAYVEAAKRKTEIERQAEGREKTGVFLGAYALNPATGERIPIWTADYVLFGYGTGAIMAVPAHDQRDYEFARKFGLPIKKVIERPGEPLPEPLERAYEEPGIMVNSGPFDGTESEEGKRKVIAWLEEKGLGKGRVTYRLRDWLISRQRYWGTPIPMVHCEACGVVPVPEEELPVLLPDLKDVEDIRPKGKSPLEAHPEFYETTCPKCGGPAKRDTDTMDTFFDSSWYYLRYTDPHNDRLPFDPEKANAWMPVDQYIGGVEHAVLHLLYSRFFTKFLHDLGMVKVEEPFQGLFTQGMVLAWTDFGPVEVEGSVVRLPEPTRIRLEIPESALSLEDVRKMGAELRPHEDGTLHLWKPAVMSKSKGNGVMVGPFVKEQGADIARITILFAAPPENEMVWTEEGVQGAWRFLNRIYRRVAEDREALLETSGVFQAEALEGKDRELYGKLHETLKKVTEDLEALRFNTAIAALMEFLNALYEYRKDRPVTPVYRTAIRYYLQMLFPFAPHLAEELWHWFWPDSLFEAGWPELDEKALEKDVVEVAVQVNGRVRGTIHIPKDAPLEVARAEALKVRNVRAHLEGKEVVKEIYVPGKILNLVVRG”, the “soluble on expression in E. coli” value is reported as “soluble”. With “MEYKRQSNGGSGGGGRQLNNTCNSNISVPNAFSPRSYSSRGTEIWSVATSGSSNSTTELQGAQSPSMGSRVSDSHLLTLGSDSRSVSNNLNIAATMAEPNLEEHLKGVLHKKEAAKLTSPSDFTLYYRVTKGQSKSEVATTIPLFICYRNADNQVSNFRVVQVLTENNSMWWTVIINKQHTQMFRRLSDLVRCYHSYRYINPETGGSEIFPISKCSSQVPTNP” the “soluble on expression in E. coli” value was “not soluble”. For “MGHHHHHHSHMEAPEVEPRLVYCYPVRLAVSAPPMPSVEMHMENNVVCIRYKGEMVKVSRNYFSKLWLLYRYSCIDDSAFERFLPRVWCLLRRYQMMFGVGLYEGTGLQGSLPVHVFEALHRLFGVSFECFASPLNCYFRQYCSAFPDTDGYFGSRGPCLDFAPLSGSFEANPPFCEELMDAMVSHFERLLESSPEPLSFIVFIPEWREPPTPALTRMEQSRFKRHQLILPAFEHEYRSGSQHICKKWVPGRAGEGGWAGQARPSPTLSHCLCPQGGNALQGRPQHGCALPTERPWLCQVGADA”, the “soluble on expression in E. coli” value was “soluble”. With “MGHHHHHHSHMSEDSEKEDYSDRTISDEDESDEDMFMKFVSEDLHRCALLTADSFGDPFFPRTTQILLEYQLGRWVPRLREPRDLYGVSSSGPLSPTRWPYHCEVIDEKVQHIDGVSCWSESHQAGAQWCDLGSLQPPPPRFKRFACFSLLSSRDYRRVPPRPANFVFLVETGFHHVGQDGLRLLTS” the “soluble on expression in E. coli” value was “not soluble”. With “MGHHHHHHSHMTSEFFSAQLRAQISDDTTHPISYYKPEFYMPDDGGTAHLSVVAEDGSAVSATSTINLYFGSKVRSPVSGILLNNEMDDFSSTSITNEFGVPPSPANFIQPGKQPLSSMCPTIMVGQDGQVRMVVGAAGGTQITMATALVCVTPFLPGRAHPAQPPSHADHTPMPQAIIYNLWFGYDVKWAVEEPRLHNQLLPNVTTVERNIDQEVTAALETRHHHTQITSTFIAVVQAIVRMAGGWAAASDSRKGGEPAGY” the “soluble on expression in E. coli” value was “soluble”. For “MGNCAKRPWRRGPKDPLQWLGSPPRGSCPSPSSSPKEQGDPAPGVQGYSVLNSLVGPACIFLRPSIAATQLDRELRPEEIEELQVAFQEFDRDQDGYIGCRELGACMRTLGYMPTEMELIEISQQISGGKVDFEDFVELMGPKLLAETADMIGVRELRDAFREFDTNGDGRISVGELRAALKALLGERLSQREVDEILQDVDLNGDGLVDFEEFVRMMSRLEHHHHHH”, the “soluble on expression in E. coli” value was “not soluble”. In the case of “MKDHDAIKLFIGQIPRNLDEKDLKPLFEEFGKIYELTVLKDRFTGMHKGCAFLTYCERESALKAQSALHEQKTLPGMNRPIQVKPADSESRGGSSCLRQPPSHRKLFVGMLNKQQSEDDVRRLFEAFGNIEECTILRGPDGNSKGCAFVKYSSHAEAQAAINALHGSQTMPGASSSLVVKFADTDKERTMRRMQQMAGQMGMFNPMAIPFGAYGAYAQALMQQQAALMASVAQGGYLNPMAAFAAAQMQQMAALNMNGLAAAPMTPTSGGSTPPGITAPAVPSIPSPIGVNGFTGLPPQANGQPAAEAVFANGIHPYPAQSPTAADPLQQAYAGVQQYAAAAYPAAYGQISQAFPQPPPMIPQQQREGPEGCNLFIYHLPQEFGDAELMQMFLPFGFVSFDNPASAQTAIQAMNGFQIGMKRLKVQLKRPKDANRPY”, the “soluble on expression in E. coli” value is reported as “soluble”. In the case of “MRTLFNLLWLALACSPVHTTLSKSDAKKAASKTLLEKSQFSDKPVQDRGLVVTDLKAESVVLEHRSYCSAKARDRHFAGDVLGYVTPWNSHGYDVTKVFGSKFTQISPVWLQLKRRGREMFEVTGLHDVDQGWMRAVRKHAKGLHIVPRLLFEDWTYDDFRNVLDSEDEIEELSKTVVQVAKNQHFDGFVVEVWNQLLSQKRVGLIHMLTHLAEALHQARLLALLVIPPAITPGTDQLGMFTHKEFEQLAPVLDGFSLMTYDYSTAHQPGPNAPLSWVRACVQVLDPKSKWRSKILLGLNFYGMDYATSKDAREPVVGARYIQTLKDHRPRMVWDSQASEHFFEYKKSRSGRHVVFYPTLKSLQVRLELARELGVGVSIWELGQGLDYFYDLL”, the “soluble on expression in E. coli” value is reported as “soluble”. With “MSHRTSSTFRAERSFHSSSSSSSSSTSSSASRALPAQDPPMEKALSMFSDDFGSFMRPHSEPLAFPARPGGAGNIKTLGDAYEFAVDVRDFSPEDIIVTTSNNHIEVRAEKLAADGTVMNTFAHKCQLPEDVDPTSVTSALREDGSLTIRARRHPHTEHVQQTFRTEIKI” the “soluble on expression in E. coli” value was “soluble”. For “MSLAQQVRWDERARCQAAQGPRVRERAAEEVAGRAVVRERPDQGCTAKKVVSAPARRTLVREWIGRGASERRALAVIGMSASALRYCPREDRNGELRERICALAHRHRRYGVGMIYLKLRQEGRIVNYKRVERLYREQQLQVRRRKRKKVPIGERQPLLRPSQANQVWSMDFVFDRTAEGRVIKCLVIVDDATHEAVAIEVERAISGHGVTRVLDRLAHSRGLPKVIRTDNGKEFCGKAMVAWAHARNVQLRLIQPGKPNQNAYVESFNGRLRDECLNEHWFPTLLHARTEIERWRREYNEDRPKKAIGGMTPAAYAQHLANTDIINPGLEGHHHHHH”, the “soluble on expression in E. coli” value was “soluble”. With “MSLSPNPLLQVRNLSVSFTTNDGVVDAVKNVSFDIRPGETLAIVGESGSGKSVSTNALMQLLPKNARIHPESSIMFEGEELLNKTDTQMRRIRGDRIGMIFQEPMTSLNPYMRVGVQVAEAIRCHRNVSQNQAKQRVLELFQLVHLPDPKGAYQKFPHEFSGGQLQRIMIAMALINEPDILIADEPTTALDVTVQAEVLRLIKEIQANMGMAILFITHDLGVVKFVADRVLVMCKGDVVEQGSTEQLFLQPEHDYTRMLINSIPKGSKDPVAVDAAPLLKAEDIRVKFLVKPYFISRRNQYFEAVKGISLELKQGETLGIVGESGSGKSTLGRALIGLLPSTGQIAFKGQDFRALSEKQRLALKKDIQMVFQDPYGSLSPRMTVGEIITEGLLVHQPHISKLERMQRARRALEEVRLDPNSINRYPHEFSGGQRQRIAIARALILEPSFILLDEPTSALDRSVQLTVIELLKEIQKRRNIGYLFISHDLAVVKALSDRVLVMQKGQVMEQGSAESIFHNPQHEYTKKLIAASFDILEENAEGHHHHHH” the “soluble on expression in E. coli” value was “not soluble”.
